Substrate in test [1]: T1, OSBP (mouse (endogenous in N2a)) (UniProt Q3B7Z2)
T1 sequence: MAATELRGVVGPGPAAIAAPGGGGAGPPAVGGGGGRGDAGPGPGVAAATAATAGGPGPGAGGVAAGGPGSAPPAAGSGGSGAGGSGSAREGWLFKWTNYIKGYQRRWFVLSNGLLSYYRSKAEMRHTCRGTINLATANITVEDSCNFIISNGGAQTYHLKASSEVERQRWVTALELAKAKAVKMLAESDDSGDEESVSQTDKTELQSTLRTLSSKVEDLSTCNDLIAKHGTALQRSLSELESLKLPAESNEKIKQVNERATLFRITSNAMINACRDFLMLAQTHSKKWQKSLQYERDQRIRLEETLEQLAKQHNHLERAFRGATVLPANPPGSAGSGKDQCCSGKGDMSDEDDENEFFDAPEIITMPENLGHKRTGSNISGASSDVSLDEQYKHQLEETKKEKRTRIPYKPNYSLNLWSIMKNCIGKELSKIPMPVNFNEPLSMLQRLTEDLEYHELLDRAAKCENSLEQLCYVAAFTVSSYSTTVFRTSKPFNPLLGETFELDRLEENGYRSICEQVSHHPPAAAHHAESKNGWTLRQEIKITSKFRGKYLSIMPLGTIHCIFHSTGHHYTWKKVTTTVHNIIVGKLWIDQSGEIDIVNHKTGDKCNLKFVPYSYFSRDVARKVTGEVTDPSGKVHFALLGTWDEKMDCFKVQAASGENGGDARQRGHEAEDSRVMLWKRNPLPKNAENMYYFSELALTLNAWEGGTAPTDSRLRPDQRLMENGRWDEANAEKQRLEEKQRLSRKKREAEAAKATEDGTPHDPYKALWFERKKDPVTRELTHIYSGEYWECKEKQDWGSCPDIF
As to the kind of experiment: co-IP; N2a cells treated with ethanol (ETOH, control) for 36 h, lysed in RIPA buffer; OSBP antibody as bait on protein A/G magnetic beads, overnight at 4 °C; precipitate analysed by Western blot. Background: A western blot detects proteins with antibodies after separation by electrophoresis.

For another test, the target named is T2, FLAG-VAPA (UniProt Q9WV55).
T2 sequence: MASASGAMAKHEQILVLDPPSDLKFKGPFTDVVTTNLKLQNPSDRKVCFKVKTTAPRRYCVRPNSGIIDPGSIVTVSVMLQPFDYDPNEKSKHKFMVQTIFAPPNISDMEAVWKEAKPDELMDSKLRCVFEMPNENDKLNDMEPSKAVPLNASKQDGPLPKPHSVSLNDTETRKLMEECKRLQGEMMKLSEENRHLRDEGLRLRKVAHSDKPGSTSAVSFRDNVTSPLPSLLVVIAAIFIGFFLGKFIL
As to the kind of experiment: co-IP; N2a cells transfected with FLAG-VAPA for 12 h, then treated with different concentrations of 24HC for 24 h; FLAG antibody as bait; precipitate analysed by Western blot.

Results are given in words; binding and its absence hold for the method and conditions named. Binding seen in cells or lysates may run through a third protein. Some binding calls cover weakened binding; strength is not graded here. For some assays here: Where a sequence is shown, tags or fusion partners need not be part of it.

B1: vesicle-associated membrane protein-associated protein A (VAPA) (protein, UniProt Q9WV55 1-249)
chain: MASASGAMAKHEQILVLDPPSDLKFKGPFTDVVTTNLKLQNPSDRKVCFKVKTTAPRRYCVRPNSGIIDPGSIVTVSVMLQPFDYDPNEKSKHKFMVQTIFAPPNISDMEAVWKEAKPDELMDSKLRCVFEMPNENDKLNDMEPSKAVPLNASKQDGPLPKPHSVSLNDTETRKLMEECKRLQGEMMKLSEENRHLRDEGLRLRKVAHSDKPGSTSAVSFRDNVTSPLPSLLVVIAAIFIGFFLGKFIL
As for B1, in test [1], the binding entry is on record as “binds”.

B2: OSBP (protein, UniProt Q3B7Z2 1-805)
chain: MAATELRGVVGPGPAAIAAPGGGGAGPPAVGGGGGRGDAGPGPGVAAATAATAGGPGPGAGGVAAGGPGSAPPAAGSGGSGAGGSGSAREGWLFKWTNYIKGYQRRWFVLSNGLLSYYRSKAEMRHTCRGTINLATANITVEDSCNFIISNGGAQTYHLKASSEVERQRWVTALELAKAKAVKMLAESDDSGDEESVSQTDKTELQSTLRTLSSKVEDLSTCNDLIAKHGTALQRSLSELESLKLPAESNEKIKQVNERATLFRITSNAMINACRDFLMLAQTHSKKWQKSLQYERDQRIRLEETLEQLAKQHNHLERAFRGATVLPANPPGSAGSGKDQCCSGKGDMSDEDDENEFFDAPEIITMPENLGHKRTGSNISGASSDVSLDEQYKHQLEETKKEKRTRIPYKPNYSLNLWSIMKNCIGKELSKIPMPVNFNEPLSMLQRLTEDLEYHELLDRAAKCENSLEQLCYVAAFTVSSYSTTVFRTSKPFNPLLGETFELDRLEENGYRSICEQVSHHPPAAAHHAESKNGWTLRQEIKITSKFRGKYLSIMPLGTIHCIFHSTGHHYTWKKVTTTVHNIIVGKLWIDQSGEIDIVNHKTGDKCNLKFVPYSYFSRDVARKVTGEVTDPSGKVHFALLGTWDEKMDCFKVQAASGENGGDARQRGHEAEDSRVMLWKRNPLPKNAENMYYFSELALTLNAWEGGTAPTDSRLRPDQRLMENGRWDEANAEKQRLEEKQRLSRKKREAEAAKATEDGTPHDPYKALWFERKKDPVTRELTHIYSGEYWECKEKQDWGSCPDIF
Regarding B2, the binding result with FLAG-VAPA is recorded as “binds”.
